Laboratory results taken from patent US4517180A (Amano Pharmaceutical Co., Ltd, priority 1982, dated 1985).

assay: general procedure: solution-phase peptide synthesis; azide process (isoamyl nitrite); OSu active esters; acid anhydrides; conditions: coupling step

Row | Substance | step yield [%]
1 | Boc--Trp--Met--Asp--MePhe--NH2 | 65.6
2 | Boc-YMGWMD[NMeF]-NH2 | 85.5
3 | pGlu--Asp--Tyr--Met--Gly-- Trp--Met--Asp--Phe--NH2 | 70.9
4 | Boc-MGWMD[NMeF]-NH2 | 63.5
5 | Boc-YMGWMDF-NH2 | 70.8

same assay, conditions: late stage modification step

Row | Substance | step yield [%]
6 | PEPTIDE1{[pGlu].D.[Tyr(SO3H)].M.G.W.M.D.F.[am]}$$$$V2.0 | 66.0
7 | Glt--Tyr--Met--Gly--Trp--Met--Asp--Phe--NH2 | 72.0
8 | PEPTIDE1{[Glt].[Tyr(SO3H)].M.G.W.M.D.F.[am]}$$$$V2.0 | 65.9
9 | PEPTIDE1{[Glt].D.[Tyr(SO3H)].M.G.W.M.D.F.[am]}$$$$V2.0 | 66.4
10 | Glt--Asp--Tyr--Met--Gly--Trp--Met--Asp--Phe--NH2 | 94.6
11 | Suc-YMGWMD[NMeF]-NH2 | 70.8
12 | Pht--Tyr--Met--Gly--Trp--Met--Asp--Phe--NH2 | 71.6
13 | Pht--Tyr(SO3 H)--Met--Gly--Trp--Met--Asp--Phe--NH2 | 57.1
14 | PEPTIDE1{[Suc].[Tyr(SO3H)].M.G.W.M.D.F.[am]}$$$$V2.0 | 75.3
15 | PEPTIDE1{[Suc].[Tyr(SO3H)].M.G.W.M.D.[MePhe].[am]}$$$$V2.0 | 65.5

Some peptides are written in HELM: one residue between dots, names in brackets for other building blocks, links after the first $. *1 amine or outer side, *2 acyl side, *3 side chain or, on linkers, in order; H or OH if unused. [ ]: non-standard residue; d: D form. The star is where a group is joined. NMeF = CN[C@@H](Cc1ccccc1)C(=O)O; Suc = O=C(CCC(=O)[*:2])[*:1]; Boc = CC(C)(C)OC(=O)*
